# Reference: PubChem BioAssay AID540256 (National Center for Advancing Translational Sciences (NCATS), 2011)
# About 3,700 (1.2%) of roughly 300,000 compounds were called active. The shares of active, inactive and inconclusive entries below differ from those in the screen. Calls come from the whole dose curve; tested in HEK293 cells. Potencies of inconclusive entries are doubtful fits and often do not repeat.
# Experiment: qHTS for Inhibitors of binding or entry into cells for Lassa Virus; note: nearly all actives have a fitted effect of over 50% in size
# Settings: Lassa virus pseudotype entry inhibition, cell reporter; activity change, negative = inhibition: at 37.9 µM (top of the series) unless noted
# % is set by controls: 0 for no effect and ±100 for the full control effect; potency is the fitted concentration of half-maximal effect.
Compound,Potency,"activity change, negative = inhibition"
CCN(CC)S(=O)(=O)c1ccc(C)c(C(=O)Oc2cccc(-c3cnc4ccccc4n3)c2)c1,"inconclusive: 12.6 µM [inhibitor, partial curve]",
N#Cc1cccc(N=Cc2c(O)ccc3ccccc23)c1,inactive,
NC(N)=N/N=C/c1ccc(OCc2ccccc2)c(OCc2ccccc2)c1,"inconclusive: 35.5 µM [inhibitor, single point]",
CCn1nc(NC(=O)c2ccco2)c2cc3cc(C)ccc3nc21,inactive,
CCOc1ccccc1N(CC(=O)NC1CCCCC1)S(=O)(=O)c1ccc(C)cc1,"inconclusive: 35.5 µM [inhibitor, single point]",
Oc1cccc(/C=N/Nc2cccc3cccnc23)c1,"inconclusive: 35.5 µM [inhibitor, single point]",
CCOCCCNCc1cccc(OCc2ccc(F)cc2)c1,inactive,
CC(=O)c1cccc(NC(=S)NC(=O)Cc2ccccc2)c1,"inconclusive: 2.51 µM [inhibitor, full curve]",
CCOC(=O)c1ccc(NC(=S)NN2CCOCC2)cc1,"inconclusive: 35.5 µM [activator, single point]",
CCN(CC)C(c1ccc(C)cc1)c1nnnn1C1CCCCC1 (stereo not drawn),inactive,
S=C1Nc2ccccc2Sc2ccc(Cl)cc21,inactive,
CC(C)(C)c1ccc(C(=O)NCC(c2ccco2)S(=O)(=O)c2ccc(F)cc2)cc1 (stereo not drawn),active: 12.6 µM,
COc1ccc(Nc2nc(N)nc(SCc3nnc(C)s3)n2)cc1,"inconclusive: 12.6 µM [activator, single point]",
CN(C)c1ccc(CNC(=O)c2ccc(Cn3c(=O)c4cccn4c4cccnc43)cc2)cc1,"inconclusive: 5.01 µM [inhibitor, single point]",
c1ccc2c(CSc3ncnc4nc[nH]c34)cccc2c1,"inconclusive: 1.12 µM [inhibitor, full curve]",
COc1ccc(OC)c(CN2CCN(C(=O)CNC(=O)c3ccccc3F)CC2)c1,"inconclusive: 35.5 µM [activator, single point]",
Cc1ccc(-c2nnc(SCC(=O)N3CCOCC3)nc2-c2ccc(C)cc2)cc1,"inconclusive: 35.5 µM [inhibitor, single point]",
CCOC(=O)/C(=N\Nc1ccc(Cl)cc1)c1csc(Nc2ccccc2)n1,"inconclusive: 35.5 µM [inhibitor, single point]",
CC(=O)c1ccc(NC(=O)C2CCN(S(=O)(=O)c3ccc4c(c3)N(C(C)=O)CCO4)CC2)cc1,inactive,
COc1ccc(CNC(=O)CSc2ncc3c(n2)-c2ccc(Cl)cc2N(Cc2ccc(F)cc2)S3(=O)=O)cc1OC,inactive,
C#C[C@]1(O)CC[C@H]2[C@@H]3CCc4cc(O)ccc4[C@H]3CC[C@@]21C,"inconclusive: 16.4 µM [inhibitor, single point]",
Cc1scc(C(=O)N/N=C/c2ccc(OCC(C)C)cc2)c1C,"inconclusive: 7.94 µM [inhibitor, partial curve, poor fit]",

Compound,Potency,"activity change, negative = inhibition"
CC(=O)c1ccc(NC(=O)CCC(=O)OCC(F)(F)C(F)F)cc1,"inconclusive: 29.1 µM [activator, single point]",
Cc1ccc(S(=O)(=O)Nc2cc(C(C)C)c(O)cc2C)cc1,inactive,
COC(=O)c1c(C)[nH]c(C(=O)CSc2ccc(Cl)cc2)c1C,"inconclusive: 12.6 µM [inhibitor, single point]",
CC1(C)Cc2c(C#N)c(SCCOc3ccccc3)nc(N3CCOCC3)c2CO1,inactive,
COc1ccccc1NC(=O)COC(=O)C1CC2CCCC(C1)C2=O (stereo not drawn),inactive,
COc1cc(OC)c(-c2cc(C(=O)NCc3ccc(F)cc3)c3c(-c4ccccc4)[nH]nc3n2)cc1OC,"inconclusive: 20 µM [inhibitor, partial curve, poor fit]",
COc1ccc(-c2cc(-c3cccs3)c(C#N)c(SCC(=O)NCc3ccccc3)n2)cc1,"inconclusive: 3.16 µM [inhibitor, partial curve, poor fit]",
Cc1ccccc1-c1nn(-c2ccc(F)cc2F)cc1CNCCCN(C)C,"inconclusive: 6.31 µM [inhibitor, partial curve, poor fit]",
O=C(c1ccc(COc2ccc3c(c2)CCC3)o1)N1CCN(c2ccccc2)CC1,"inconclusive: 20.6 µM [inhibitor, single point]",
O=c1[nH]cc([N+](=O)[O-])cc1Br,"inconclusive: 0.517 µM [inhibitor, partial curve, poor fit]",
COc1cccc(C(=O)NC2CCN(C(=O)N3c4ccccc4Sc4ccccc43)CC2)c1,"inconclusive: 5.8 µM [inhibitor, full curve]",
O=C(CSc1cnc2ccccc2n1)c1ccc(F)cc1,active: 5.8 µM,
CC(C)c1ccc(OCc2ccc(C(=O)N(C)C)o2)cc1,,inconclusive: 63.2% [activator] [at 46.1 µM]
COc1cccc(-c2nc3ccc(N4CCN(C)CC4)cc3[nH]2)c1,"inconclusive: 8.91 µM [inhibitor, partial curve, poor fit]",
COc1ccc(NC(=O)COC(=O)c2c3c(nc4ccccc24)CCCC3)cc1Cl,"inconclusive: 29.1 µM [inhibitor, single point]",
Nc1ccc(Nc2nc(-c3cc4ccccc4oc3=O)cs2)cc1,"inconclusive: 31.6 µM [inhibitor, partial curve, poor fit]",
COc1ccc(COC(=O)c2n[nH]c3ccccc23)cc1F,"inconclusive: 13 µM [inhibitor, partial curve]",
Cc1cc(-c2nc3ncccc3o2)ccc1NC(=O)c1ccccc1Br,"inconclusive: 15.8 µM [inhibitor, single point]",
COc1cc2c(cc1OC)CN(C(=O)/C=C/c1cc(OC)c(OC)c(OC)c1)CC2,"inconclusive: 35.5 µM [inhibitor, single point]",
Cc1cc(NC(=O)c2ccc3c(c2)OCO3)ccc1NC(=O)c1ccccc1,inactive,
Cc1nn(-c2ccccc2)c(N2CCCC2)c1/C=N/NC(=O)C1CC1,"inconclusive: 35.5 µM [inhibitor, single point]",

# Reformatted with tabs: 3 of the compounds above
Compound	Potency	activity change, negative = inhibition
NC(N)=N/N=C/c1ccc(OCc2ccccc2)c(OCc2ccccc2)c1	inconclusive: 35.5 µM [inhibitor, single point]	
CCn1nc(NC(=O)c2ccco2)c2cc3cc(C)ccc3nc21	inactive	
CCOc1ccccc1N(CC(=O)NC1CCCCC1)S(=O)(=O)c1ccc(C)cc1	inconclusive: 35.5 µM [inhibitor, single point]	
